We go through one molecule from US20240272170A1 (QUANTUM SI, published 2024).

Assay [1] has as its target T1, QP1165 after cleavage to N-terminal glutamine (QRVWK).
T1 peptide: QRVWK
The assay can be described thus: on-chip dynamic sequencing of QP1165, PS1875 run, trace Aperture=295010.

The target of assay [2] is T1, QP1165 after cleavage to N-terminal …. The assay can be described thus: on-chip dynamic sequencing of QP1165, PS1875 run, trace Aperture=340501.
Assay [3] has the same target. Kind of assay: on-chip dynamic sequencing of QP1165, PS2132 run, trace Aperture=376215.
The target is the same in assay [4]. Kind of assay: on-chip dynamic sequencing of QP1165, PS1875 run, trace Aperture=430641.
For assay [5] the target is unchanged. Kind of assay: on-chip dynamic sequencing of QP1165, PS2121 run, trace Aperture=740473.
For assay [6] the target is unchanged. Kind of assay: on-chip dynamic sequencing of QP1165, PS2123 run, trace Aperture=501326.
For assay [7] the target is unchanged. The assay can be described thus: on-chip dynamic sequencing of QP1165, PS2132 run, trace Aperture=1826247.
Assay [8] has the same target. The assay can be described thus: on-chip dynamic sequencing of QP1165, PS1875 run, trace Aperture=1353995.
Assay [9] has the same target. Kind of assay: on-chip dynamic sequencing of QP1165, PS2121 run, trace Aperture=1683362.
The target is the same in assay [10]. Kind of assay: on-chip dynamic sequencing of QP1165, 500 nM PS1875 plus five recognizers, 7305 alignments.
For assay [11] the target is unchanged. The assay can be described thus: on-chip dynamic sequencing of QP1165, 500 nM PS1875 plus five recognizers, 3369 alignments.
Assay [12] shares this target. Kind of assay: on-chip dynamic sequencing of QP1165, 500 nM PS2132 plus five recognizers, 36192 alignments.
For assay [13] the target is unchanged. Kind of assay: on-chip dynamic sequencing of QP1165, 500 nM PS2121 plus five recognizers, 15527 alignments.
Assay [14] has the same target. Kind of assay: on-chip dynamic sequencing of QP1165, 500 nM PS1875 plus five recognizers, 11565 alignments. As for the experimental part: The semiconductor chip was placed in the sequencing device and a chip check was performed to test electronic circuit function and to optimize laser coupling alignment. The chip was then removed from the device socket and the chip was washed twice with 50 μL of 70% isopropanol, followed by four washes with 30 μL of wash buffer (50 mM MOPS pH 8.0, 60 mM potassium acetate, 50 mM glucose, 20 mM magnesium acetate, and surfactant mix) through a flow cell attached to the chip. A second chip check was then performed. The laser was then blocked via an integrated software-controlled shutter, peptide complex was added to a final concentration of 1-10 nM and mixed thoroughly, and the chip was incubated for 15 min. The chip was then washed six times with wash buffer, followed by addition of an imaging solution (wash buffer with 5 mM Trolox and an oxygen scavenging system). The laser was unblocked and the occupancy percentage (target 10-30%, Poisson distributed) was recorded by acquiring a photobleaching signal from a fluorophore attached to the peptide complex during 5 min of laser illumination. […] Data was recorded for 15 min. […] The laser was then unblocked, and data was recorded for 10 hours. […]

Assay [15] shares this target. Kind of assay: on-chip dynamic sequencing of QP1165, 500 nM PS2123 plus five recognizers, 62511 alignments.

B1: PS1599 (designed binder)
single polypeptide, two PS1259 units in tandem: MNGLSAQHERIAPARHECVYTSCYSEENVWKLCEHIKTSKRCPLGDVYAVFISNERKMVPIWKQKSGRGEEPVIWDYQVILLHDCHKEQTFIYDLDTTLPFPCPFDTYVKEAFKSDNYINPAFWRKLRVVPADVFLQNFASDRSHMKDASGGWRMPPPPYPCIETAESRMNLDDFISMNPSVGWGHVYTLEEFVQHFGKTEEEKRKREEEEMNGLSAQHERIAPARHECVYTSCYSEENVWKLCEHIKTSKRCPLGDVYAVFISNERKMVPIWKQKSGRGEEPVIWDYQVILLHDCHKEQTFIYDLDTTLPFPCPFDTYVKEAFKSDNYINPAFWRKLRVVPADVFLQNFASDRSHMKDASGGWRMPPPPYPCIETAESRMNLDDFISMNPSVGWGHVYTLEEFVQHFGKT
notes: also called PS1599 (NQ); PS1599 (R1C1)
Regarding B1, the “PD of a recognition segment in an example trace” value in assay [1] was found to be 7 s; in assay [2] it was 11.4 s; in assay [3], 3.27 s; in [4], 7.25 s; in [5], 2.84 s; in assay [6], 4.47 s. Besides, the “PD of a recognition segment in an example trace” value in assay [7] came out at 4.3 s; in [8] it was 6.5 s; in assay [9] it was 4.56 s. The “IPD (interpulse duration)” value in [10] came out at 16.9 s; in [11], 15.2 s; in [12] it was 15.3 s; in assay [13], 17 s; in [14], 17.1 s; in assay [15], 16.7 s. The “PD (pulse duration)” value was determined as 5.16 s in assay [10]; 5.27 s in assay [11]; 2.5 s in assay [12]; 2.57 s in [13]; 5.78 s in assay [14]; 3.61 s in assay [15].
